Results: PMC12299903 (Pharmaceuticals, 2025)

Legend:
[1] = Isothermal titration calorimetry, peptide-membrane interaction; format: binding; conditions: ITC, 20 mM POPC:POPG (3:1) LUVs titrated into sample at 50 µM peptide; 10 mM Tris-HCl, 100 mM NaCl, pH 8.5; 25 °C
[2] = Differential scanning calorimetry of model membranes; conditions: for ∆transH of LUVs: 3 mM DMPC:DMPG (3:1) LUVs, 10 mM Tris-HCl pH 7.5, pure LUVs 24.0, triplicate, ± 0.5
Method: The phase transition profile of 1,2-dimyristoyl-sn-glycero-3-phosphocholine and 1,2-dimyristoyl-sn-glycero-3-phosphocholine/1,2-dimyristoyl-sn-glycero-3-phosphoglycerol (DMPC:DMPG. 3:1, mol:mol) at 3 mM was investigated in the absence and presence of Lun-1, NP, NP-Lun-EN, and NP-Lun-EC at different concentrations (Table S1, using a VP-DSC® microcalorimeter (Malvern® Instruments, Malvern, UK). All mixtures of LUVs and peptide–LUVs were prepared immediately prior to the experiments. The samples were pre-degassed and tested against a 10 mM Tris-HCl buffer (pH 7.5) containing 50 mM NaCl in the reference cell. Buffer-only experiments were also performed in all cells for subsequent background subtraction. Each sample underwent three successive heating scans in the temperature range of 10–35 °C at a heating rate of 1.0 °C.min^−1. Data analyses were performed using Microcal Origin® DSC software version 5.0 (GE HealthCare-Microcal®, Amherst, MA, USA), which was employed to subtract the blank and determine the transition temperature (Tm) and transition enthalpy (DtransH) from the gel phase to the liquid crystalline phase.

[3] = 2H solid-state NMR, phospholipid bilayer order parameters; conditions: POPC:POPG-d31 (3:1), 2 mol% peptide, pH 7.0, 300 K

| Substance | ΔG^0 [1] | ΔH^0 [1] | ΔS^0 [1] | ∆transH of LUVs ([2]; 10 µM peptide) | ∆transH of LUVs ([2]; 25 µM peptide) | ∆transH of LUVs ([2]; 50 µM peptide) | ∆transH of LUVs ([2]; 100 µM peptide) | lowering of transition enthalpy (DtransH) ([2]; DMPC:DMPG (3:1) LUVs, versus pure LUVs) | relative order parameters of lipid chain (SCD sample / SCD pure vesicles) [3] |
| --- | --- | --- | --- | --- | --- | --- | --- | --- | --- |
| Lun-1-AAAECterm-NP [NP-Lun-EC] | -32.64 kJ/mol | -2.72 ± 0.209 kJ/mol | 24 cal·mol^−1.K^−1 | 23.7 kJ/mol | 22.0/22.0 kJ·mol^−1 | 19.1 kJ/mol | 16.7 kJ/mol | 7.3 kJ/mol | significant changes |
| NP-NtermEAAA-Lun-1 [NP-Lun-EN] | -14.55 kJ/mol | -0.837 ± 0.126 kJ/mol | 11 cal·mol^−1.K^−1 | 24.0 kJ/mol | 23.5 kJ/mol | 21.5 kJ/mol | 17.8 kJ/mol | – | minimal effects |
